Results on 3 compounds are retold here after patent US9066958B2 (priority 2006, dated 2015).

Molecules are shown by their SMILES.

Data set [1] in a line: Sensory observation of vehicle liquids (taste, mouth-feel). The settings on record: direct experimental observation.
The nature of data set [2]: Drop of liquid applied onto a nipple: adherence, no drip-off within 10 seconds. The note with it: one drop applied onto a nipple, direct experimental observation.

As to `CC(=O)Oc1c(C)c(C)c2c(c1C)CCC(C)(CCC[C@H](C)CCC[C@H](C)CCCC(C)C)O2` (stereo partly drawn) [Eitamin E acetate oil], the mouth-feel entry in data set [1] is reported as “Oily”. Further, the “Experiment drop behavior on nipple” value in data set [2] is “Adheres”.
The matching figures for `CCO` [Ethanol]: “no feel” and “drips off”.
For `O` [Water], in data set [1], the mouth-feel result is given as “none”. Besides, the “Experiment drop behavior on nipple” value in data set [2] is given as “drips off”.
